The list shows a part of the results.
These sequences were tested against T1, OsSMF1 (Oryza sativa, UniProt Q6ZLB0 1-436) (assay: protein-binding microarray (RPBM); PBS, 2% BSA, 51.3 ng/ul salmon testes DNA, 50 uM zinc acetate, 200 nM TF, 25 C, 1 h; high values mean tight binding). Details: protein: recombinant; tags: N-terminal polyhistidine and DsRed monomer fusion (pET32a); chain copies: 2; label: CyDye5-dUTP incorporated in the synthesized complementary strand; 3' TTTTT single-stranded linker to array surface; dsDNA, one strand shown.
T1 sequence: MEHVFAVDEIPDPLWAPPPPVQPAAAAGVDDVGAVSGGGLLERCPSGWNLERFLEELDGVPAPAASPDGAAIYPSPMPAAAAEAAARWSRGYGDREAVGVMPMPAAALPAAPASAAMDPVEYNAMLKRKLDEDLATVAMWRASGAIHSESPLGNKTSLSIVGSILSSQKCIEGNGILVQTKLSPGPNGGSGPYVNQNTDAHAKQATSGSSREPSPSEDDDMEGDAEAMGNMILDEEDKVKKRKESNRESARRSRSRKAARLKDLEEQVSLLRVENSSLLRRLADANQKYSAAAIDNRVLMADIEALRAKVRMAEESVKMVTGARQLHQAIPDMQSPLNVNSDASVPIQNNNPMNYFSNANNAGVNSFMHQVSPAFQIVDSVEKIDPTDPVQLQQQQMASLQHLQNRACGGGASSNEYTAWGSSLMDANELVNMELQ
Method in brief: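 The binding signal is fluorescence intensity per feature, in arbitrary units, read on an Axon 4000B scanner. Polyhistidine- and DsRed-tagged transcription factors (N-terminal fusions) from E. coli BL21-CodonPlus were purified on Ni–NTA and applied at 200 nM for 1 h at 25 °C to a double-stranded, BSA-blocked custom Agilent array in buffer with 50 µM zinc acetate.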
In the case of “TTTCAACGGAAATCTACCGCGTCCAGGTGGCGGACGCCCACGGAGTCACCTAGTGCAG”, the binding signal is reported as 3540 fluorescence intensity (a.u.). For “TATGTGGGGTTGAATTTGTTTTGAAATTTCCGCATAGATGCGGAGTCACCTAGTGCAG”, the binding signal was 3510 fluorescence intensity (a.u.). In the case of “GGCACAGGGCGGCGACGAGGATGTTGAACGTGTGCGCGTTCGGAGTCACCTAGTGCAG”, the binding signal is reported as 3870 fluorescence intensity (a.u.). With “CCAATTGTGTGGCGCGGACGTGGCGCGCCGCGCGTCCACCCGGAGTCACCTAGTGCAG” the binding signal was 7350 fluorescence intensity (a.u.). With “TGGCCGGCCCCGCCGGCAGCCGAACCTCTCGTGACCCGTGCGGAGTCACCTAGTGCAG” the binding signal was 3220 fluorescence intensity (a.u.). With “GGGTGGATTTGAGTGACACGGGCCCACGTGTAGCCTCACACGGAGTCACCTAGTGCAG” the binding signal was 11700 fluorescence intensity (a.u.). For “CCAGTGTGTGAATCAGTGTGACGTGACACATGACGTAAGCCGGAGTCACCTAGTGCAG”, the binding signal was 7060 fluorescence intensity (a.u.). In the case of “TATTTTGAACGTGACTAAATGTCCATTTTCTCGCACCCCACGGAGTCACCTAGTGCAG”, the binding signal is reported as 4220 fluorescence intensity (a.u.). With “GTGGATAGCTGAAGGTTTTGTCCATGTGGAACATGTAGGGCGGAGTCACCTAGTGCAG” the binding signal was 3270 fluorescence intensity (a.u.). In the case of “AAGCATCACATCAACGTCACGTGGAACGAAGACTAGGTCACGGAGTCACCTAGTGCAG”, the binding signal is reported as 6370 fluorescence intensity (a.u.). In the case of “CAGTAGAGGCAAAAGCTGGTCGTCGTGGCGGGTTCATCGGCGGAGTCACCTAGTGCAG”, the binding signal is reported as 4350 fluorescence intensity (a.u.). For “ACAGTTACCGGCCAGTTCGCTATTGCCGGAGTCACCATCCCGGAGTCACCTAGTGCAG”, the binding signal was 3280 fluorescence intensity (a.u.). For “GCTTCACCTCTGACACCATTGACACATTAGCCTGCCATTGCGGAGTCACCTAGTGCAG”, the binding signal was 5500 fluorescence intensity (a.u.). With “AAAAGAAACCTGCCTATACGTCACAAAATTCAAACGATGCCGGAGTCACCTAGTGCAG” the binding signal was 4150 fluorescence intensity (a.u.). For “ACTATGTTTATCATGTTTGTCGTGGCATGTGTGCCCTTGTCGGAGTCACCTAGTGCAG”, the binding signal was 4520 fluorescence intensity (a.u.). “GAGACCCAAAGCCACGCAACTTTCTTTGTGTTCTTTGATTCGGAGTCACCTAGTGCAG” was tested, and the binding signal was 3990 fluorescence intensity (a.u.). In the case of “CCCGTGTTCTCCACCTCACTCCACAATAACTTGGCGGCTGCGGAGTCACCTAGTGCAG”, the binding signal is reported as 5380 fluorescence intensity (a.u.). “CAAGAGGAGGGTCTACGCCTTCTTTACGCGAACGTGGACCCGGAGTCACCTAGTGCAG” was tested, and the binding signal was 4010 fluorescence intensity (a.u.). For “GCATTGAACTATGCAGGCAGATATTTTCCAGCTCACGGCACGGAGTCACCTAGTGCAG”, the binding signal was 7100 fluorescence intensity (a.u.). In the case of “AAAATAGAAAATGCTGACTAGGTTGCCACGCGTACGTCACCGGAGTCACCTAGTGCAG”, the binding signal is reported as 15500 fluorescence intensity (a.u.). In the case of “ATGTTCAAACCACTCAGCTGACTTGGTATGATCCCGGCAACGGAGTCACCTAGTGCAG”, the binding signal is reported as 8020 fluorescence intensity (a.u.). “TGCCATAGCTGATTACAGATTTACAGCCGGCTTTCATTCTCGGAGTCACCTAGTGCAG” was tested, and the binding signal was 4130 fluorescence intensity (a.u.). With “TTTATCCATATCTAAATCTACGCATTAATGAGTCATCCTACGGAGTCACCTAGTGCAG” the binding signal was 8520 fluorescence intensity (a.u.). In the case of “CCCACACTACGGTCAACATTGTACAATAATAGACGCCCAGCGGAGTCACCTAGTGCAG”, the binding signal is reported as 3290 fluorescence intensity (a.u.). With “TCATGGTCATGACTCATGACTCATGTGGTCATCCAAAAGACGGAGTCACCTAGTGCAG” the binding signal was 9770 fluorescence intensity (a.u.). For “AATTGATTTCTCTATAGACAAATAGGGAATGCCAGATTGACGGAGTCACCTAGTGCAG”, the binding signal was 20100 fluorescence intensity (a.u.). With “AGAGCTCACAACTTACCCCGTCCGTGCGTACGTAGCAGCACGGAGTCACCTAGTGCAG” the binding signal was 3690 fluorescence intensity (a.u.). In the case of “ATGACATATAAGTCCACTGTAATTTTGGTATAAGTAAATACGGAGTCACCTAGTGCAG”, the binding signal is reported as 3180 fluorescence intensity (a.u.). “CATCTACGAAAATAGGCCTATGCAGGCGGCTGACTACCCGCGGAGTCACCTAGTGCAG” was tested, and the binding signal was 3850 fluorescence intensity (a.u.). “CAAGATAATCTTGCATTTGTGGCTTTGACACGACGACGATCGGAGTCACCTAGTGCAG” was tested, and the binding signal was 3830 fluorescence intensity (a.u.). With “AGGTCATGTCATCTCTGGCAGGCCTAAACCCTTTCCTCTACGGAGTCACCTAGTGCAG” the binding signal was 9830 fluorescence intensity (a.u.). “CAGCGAGAGCGGTGTGGCCAAATAACGCTGCCACGTCAGTCGGAGTCACCTAGTGCAG” was tested, and the binding signal was 35900 fluorescence intensity (a.u.). For “GCGGCGGTGTCTCGCGCCGCCAGCCTACAAATGGGGAGAGCGGAGTCACCTAGTGCAG”, the binding signal was 40300 fluorescence intensity (a.u.). In the case of “CATAAGCGCCACATCAACTCCACGTAGAACGAAAACCGAGCGGAGTCACCTAGTGCAG”, the binding signal is reported as 9310 fluorescence intensity (a.u.). With “GCCTAGTGATGATGCAGAGGGGATTCCCGCTTTAAGTATGCGGAGTCACCTAGTGCAG” the binding signal was 7970 fluorescence intensity (a.u.). For “TCATCTCGTTTTGTCACGTGCGTGCACATGACGCGATAGCCGGAGTCACCTAGTGCAG”, the binding signal was 7110 fluorescence intensity (a.u.). For “GTTTCCGATCCACCCGTCCAATTAAATCATGCTTAGTGGCCGGAGTCACCTAGTGCAG”, the binding signal was 3320 fluorescence intensity (a.u.). In the case of “CCATCACTACAACATGTCATCATCCGATGTCTCCGGCAGTCGGAGTCACCTAGTGCAG”, the binding signal is reported as 5740 fluorescence intensity (a.u.). “ACGGACAGTCAAACGTTAGACACGGAAACCAAGGTTTGTCCGGAGTCACCTAGTGCAG” was tested, and the binding signal was 30500 fluorescence intensity (a.u.). For “AGGGGTTTGGTTGGTGAGCGACGGAGTCTGCGCGGTGGGACGGAGTCACCTAGTGCAG”, the binding signal was 21500 fluorescence intensity (a.u.). For “ACCTTTTCTTCAATCATACTTCACATAATGACCCGCAGCACGGAGTCACCTAGTGCAG”, the binding signal was 3650 fluorescence intensity (a.u.). For “CCCGTCTCGCCCGCAGTCACGGATCGAGGAGGCCTCGGCTCGGAGTCACCTAGTGCAG”, the binding signal was 3760 fluorescence intensity (a.u.). “AGAGAAGAGGAGAAAGAGGGAAGGTGATGATGTGGCTTCCCGGAGTCACCTAGTGCAG” was tested, and the binding signal was 14100 fluorescence intensity (a.u.). “AATCCACTGTTGTGTTTGTTTGGTGGCATGCATATGTAGACGGAGTCACCTAGTGCAG” was tested, and the binding signal was 3160 fluorescence intensity (a.u.). In the case of “ATCTGTTATGTTTGCCCTGTCATTGGTTCTGCTAATCAATCGGAGTCACCTAGTGCAG”, the binding signal is reported as 3190 fluorescence intensity (a.u.). For “CAACAATCGTGTGCTGTGCTGACGACAGCCATGGGCCACACGGAGTCACCTAGTGCAG”, the binding signal was 7140 fluorescence intensity (a.u.). For “ATGAATAATTCTTGATGACAACTATTATTGTTGTGGATTTCGGAGTCACCTAGTGCAG”, the binding signal was 3880 fluorescence intensity (a.u.). With “GTCTAAAGCTGCGTTTGACCGTGATTTTGCCTACGTGGCACGGAGTCACCTAGTGCAG” the binding signal was 20800 fluorescence intensity (a.u.). For “CGCTTTAAGTGGGAATTAAACAATTGGGCACCAACCAAGACGGAGTCACCTAGTGCAG”, the binding signal was 23400 fluorescence intensity (a.u.). For “ACTGGTTCCATTCCTCCTCGTCATCTCCAGCTCGCGGCGGCGGAGTCACCTAGTGCAG”, the binding signal was 7580 fluorescence intensity (a.u.). With “CCCATTGCTGTCTCTACCATGTGTCATCTTCCAATAAGCACGGAGTCACCTAGTGCAG” the binding signal was 4950 fluorescence intensity (a.u.). In the case of “TCTGCTGTATGCGAGGATGACTTAGCGTGCTCACGTGGCACGGAGTCACCTAGTGCAG”, the binding signal is reported as 18000 fluorescence intensity (a.u.). In the case of “CCGCGCCCTTGCAGGAAGATGTGTCAGCTGCAGATTTGGGCGGAGTCACCTAGTGCAG”, the binding signal is reported as 6110 fluorescence intensity (a.u.). “GACTAAAACTATAACACCTTTTCAAATAAACACGTGTGCACGGAGTCACCTAGTGCAG” was tested, and the binding signal was 7990 fluorescence intensity (a.u.).

Reference: PMC7819943, “Rice protein-binding microarrays: a tool to detect cis-acting elements near promoter regions in rice”
